Results are given in words; binding and its absence hold for the method and conditions named. Binding seen in cells or lysates may run through a third protein. These calls come from enrichment with a bait or labelling near it, and not all partners need be listed. Tags and fused reporters may be left off the sequences shown.
T1: NUP85-MYC (NUCLEOPORIN 85, expressed from NUP85pro:NUP85-MYC) (Arabidopsis thaliana) (UniProt Q8RXH2)
T1 sequence: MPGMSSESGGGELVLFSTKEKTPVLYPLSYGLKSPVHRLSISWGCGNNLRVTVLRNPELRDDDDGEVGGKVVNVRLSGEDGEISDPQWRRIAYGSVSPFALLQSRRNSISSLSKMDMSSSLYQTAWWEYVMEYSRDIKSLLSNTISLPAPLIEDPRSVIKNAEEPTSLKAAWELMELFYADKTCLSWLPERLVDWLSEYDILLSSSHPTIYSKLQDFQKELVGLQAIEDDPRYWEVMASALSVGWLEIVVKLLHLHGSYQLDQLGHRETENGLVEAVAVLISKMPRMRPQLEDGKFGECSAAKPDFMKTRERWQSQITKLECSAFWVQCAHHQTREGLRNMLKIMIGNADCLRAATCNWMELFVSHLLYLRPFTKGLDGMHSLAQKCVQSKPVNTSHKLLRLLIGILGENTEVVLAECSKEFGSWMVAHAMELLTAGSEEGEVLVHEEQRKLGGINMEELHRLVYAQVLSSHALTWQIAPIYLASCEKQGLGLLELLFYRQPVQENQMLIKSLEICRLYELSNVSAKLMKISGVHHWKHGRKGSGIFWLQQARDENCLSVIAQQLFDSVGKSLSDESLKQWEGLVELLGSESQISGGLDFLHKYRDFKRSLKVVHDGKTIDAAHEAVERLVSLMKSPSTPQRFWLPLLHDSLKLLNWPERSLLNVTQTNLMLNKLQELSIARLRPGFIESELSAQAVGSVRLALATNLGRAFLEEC

Chains of the proteins cited; added tags and fusions are not shown.
UniProt Q9SR02: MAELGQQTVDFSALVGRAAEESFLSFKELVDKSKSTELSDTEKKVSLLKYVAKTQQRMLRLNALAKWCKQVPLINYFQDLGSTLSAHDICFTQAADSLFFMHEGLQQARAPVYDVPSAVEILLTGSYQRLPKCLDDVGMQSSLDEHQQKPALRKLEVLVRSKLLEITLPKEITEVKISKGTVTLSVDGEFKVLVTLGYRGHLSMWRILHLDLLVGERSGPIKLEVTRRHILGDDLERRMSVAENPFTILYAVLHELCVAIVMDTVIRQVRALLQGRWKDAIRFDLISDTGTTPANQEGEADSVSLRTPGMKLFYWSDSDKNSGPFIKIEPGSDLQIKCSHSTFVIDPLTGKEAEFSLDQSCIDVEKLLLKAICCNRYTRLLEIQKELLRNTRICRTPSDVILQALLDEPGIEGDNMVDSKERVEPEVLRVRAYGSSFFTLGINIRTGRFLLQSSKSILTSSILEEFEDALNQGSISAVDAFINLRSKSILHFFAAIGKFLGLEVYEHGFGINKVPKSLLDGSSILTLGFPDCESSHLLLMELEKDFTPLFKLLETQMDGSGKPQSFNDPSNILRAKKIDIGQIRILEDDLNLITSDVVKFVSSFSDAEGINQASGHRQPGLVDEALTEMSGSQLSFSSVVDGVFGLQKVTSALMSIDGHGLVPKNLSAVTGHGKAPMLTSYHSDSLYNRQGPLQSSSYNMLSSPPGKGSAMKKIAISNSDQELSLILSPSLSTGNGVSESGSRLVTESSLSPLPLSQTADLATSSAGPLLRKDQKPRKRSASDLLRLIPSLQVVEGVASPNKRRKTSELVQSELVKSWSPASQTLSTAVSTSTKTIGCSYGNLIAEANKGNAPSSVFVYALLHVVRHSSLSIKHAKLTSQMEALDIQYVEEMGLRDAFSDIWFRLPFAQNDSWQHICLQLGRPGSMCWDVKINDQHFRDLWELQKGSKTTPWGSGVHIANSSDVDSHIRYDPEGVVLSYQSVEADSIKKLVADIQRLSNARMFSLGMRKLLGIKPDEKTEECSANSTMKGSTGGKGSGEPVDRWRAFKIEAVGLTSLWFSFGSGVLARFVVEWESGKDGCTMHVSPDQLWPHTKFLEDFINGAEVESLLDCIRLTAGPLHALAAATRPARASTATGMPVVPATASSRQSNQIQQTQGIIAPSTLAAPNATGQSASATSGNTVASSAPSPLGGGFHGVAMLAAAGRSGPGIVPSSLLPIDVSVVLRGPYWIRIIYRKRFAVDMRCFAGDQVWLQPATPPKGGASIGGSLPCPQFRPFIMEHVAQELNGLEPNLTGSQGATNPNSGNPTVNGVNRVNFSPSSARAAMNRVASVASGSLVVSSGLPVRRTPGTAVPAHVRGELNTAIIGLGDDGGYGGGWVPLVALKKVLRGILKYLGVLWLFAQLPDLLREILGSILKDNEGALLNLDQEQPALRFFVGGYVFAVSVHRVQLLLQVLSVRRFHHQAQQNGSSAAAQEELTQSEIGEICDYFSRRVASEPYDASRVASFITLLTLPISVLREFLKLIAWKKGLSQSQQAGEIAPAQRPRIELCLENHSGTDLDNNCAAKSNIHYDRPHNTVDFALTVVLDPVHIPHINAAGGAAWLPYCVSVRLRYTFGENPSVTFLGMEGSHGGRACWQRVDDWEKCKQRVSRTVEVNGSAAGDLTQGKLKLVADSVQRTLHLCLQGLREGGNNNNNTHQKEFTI


Target: T1, NUP85-MYC (NUCLEOPORIN 85, expressed from NUP85pro:NUP85-MYC) (Arabidopsis thaliana)
Test: affinity purification with mass spectrometry; anti-MYC agarose beads on total protein extract of 12-day-old NUP85pro:NUP85-MYC transgenic seedlings, WT seedlings as negative control; 4 h at 4°C; two independent IP-MS experiments

Molecule | binding
MED14 (from UniProt Q9SR02 1-1703) | binds
MED18, endogenous (protein, UniProt Q9SJZ6 1-219) MSMECVVQGIIETQHVEALEILLQGLCGVQRERLRVHELCLRSGPNLGVVSSEVRLLCDLDQPEPTWTVKHVGGAMRGAGADQISVLVRNMIESKVSKNALRMFYALGYKLDHELLKVGFAFHFQRTAHISVSVSSVNKMPKVHAIDEAVPVTPGMQIVDVTAPATSENYSEVAAAVSSFCEFLAPLVHLSKPSISTGVVPTAAAAAASLMSDGGGTTL | binds
NUP43 (protein, UniProt Q24JJ9 1-361) MEMMQDSFQVHRIPQSKYVDGVRWLPQASALNRFFATASYDADCDSSSIEIQSLDPNPRGNHNTNPLIESLSSWTSPSRVSSLEVAGNGGGGGSFKPMVSAATSSGSLHVLMIDLVEGAAIEEFYAAEGERFHVGRVEGVDWREGGECVTVGEDGRVNVVKIVNGEGLRYRKVFDGNGLVAYRAVKWASPTEFVTGGYGFGLQLWDQRKSGEAVSQLKGNWFQGKTSAIVHSIDIHPSRKHTCIAGGSSGTVFAWDLRWPQQPIVLSGVGASENINNPLSESEVWEVQYDSYTKSNVSSSRILPVMTCSEDGILGIIEQGEEPIELLAEPCAINSFDIDRQNPQDVICSLEWESIAVFSRP | binds
MED16 (protein, UniProt F4JGZ1 1-1278) MNQQNPEEEVSLVNNSGGGGIIEAPAIVEEKEEEGLQQKQEETIESTDPILVVVEEKLLEKSVDGEKEDDNSSSSNMEIDPVSPATVFCVKLKQPNSNLLHKMSVPELCRNFSAVAWCGKLNAIACASETCARIPSSKANTPFWIPIHILIPERPTECAVFNVVADSPRDSVQFIEWSPTSCPRALLIANFHGRITIWTQPTQGSANLVHDATSWQCEHEWRQDIAVVTKWLTGASPYRWLSSKPSSGTNAKSTFEEKFLSQSSESSARWPNFLCVCSVFSSGSVQIHWSQWPSNQGSTAPKWFSTKKGLLGAGPSGIMAADAIITDSGAMHVAGVPIVNPSTIVVWEVTPGPGNGLQATPKISTGSRVPPSLSSSSWTGFAPLAAYLFSWQEYLISEIKQGKKPSDQDSSDAISLSCSPVSNFSAYVSPEAAAQSAATTTWGSGVTAVAFDPTRGGSVIAVVIVEGQYMSPYDPDEGPSITGWRVQRWESSVQPVVLHQIFGNPTSNFGGQVPTQTVWVSRVDMSIPPTKDFKNHQVAAAGPSVDAPKEPDSGDEKANKVVFDPFDLPSDIRTLARIVYSAHGGEIAIAFLRGGVHIFSGPTFSPVENYQINVGSAIAAPAFSPTSCCSASVWHDAAKDCAMLKIIRVLPPALPRNQSKVDQSTWERAIAERFWWSLLVGVDWWDAVGCTQSAAEDGIVSLNSVIAVMDADFHSLPSTQHRQQYGPNLDRIKCRLLEGTNAQEVRAMVLDMQARLLLDMLGKGIESALVNPSALVFEPWRVDGETITGINPEAMAVDPALVSSIQAYVDAVLDLASHFITRLRRYASFCRTLASHAASAGTGSNRNNVTSPTQNASSPATPQVFPDKSLYLAVGQPTTTTTTTATTNSSGSSHVQAWMQGAIAKISSSNDGSNSTASPISGSPTFMPISINTGTFPGTPAVRLIGDCHFLHRLCQLLLFCFLQRSSRFPQRNADVSSQKLQTGATSKLEEVNSAKPTPALNRIEDAQGFRGAQLGTGVKGIDENSARTTKMGSGNAGQGYTYEEVRVLFHILMDLCKRTSGLAHPLPGSQVGSGNIQVRLHYIDGNYTVLPEVVEAALGPHMQNMPRPRGADAAGLLLRELELHPPSEEWHRRNLFGGPGSEPEDMILTDDVSKLSNSLDLPDTNFSGICDGYNRVHSLWPRKRRMSERDAAFGSNTSVGLGAYLGIMGSRRDVVTATWKTGLEGVWYKCIRCLRQTSAFASPGATKQPNPNERETWWTSRWVYCCPMCGGTWVRVV | binds

Further lines, results first:

binding | Molecule
binds | Sec13
binds | NUP96 (protein, UniProt Q8LLD0 1-1046) MTSLSIQPFPEISRMARDLDSRKKRRISLDGIAALCEHSKEIIDSLPMLNSPDYFLKPCINELVEREIESPDYCSRVPDFTIGRIGYGYIRFLGNTDVRRLDLDHIVKFHRHEVIVYDDESSKPVVGEGLNKAAEVTLVVNIPDLTWGKQQVNHIAYKLKQSTERQGATFISFDPDNGLWKFFVPHFSRFGLSDDEAEDIAMDDAPGLGDPVGLDGKKVADIDEEDQMETSELELSHSLPAHLGLDPEKMKEMRMLMFPNEDEDESEDFREQTSHLMTSLTKRNVRPSQKIAQRNSHQDPPPVVRKTPLALLEYNPGNDKSSPGSILMVQQNKNLAVRKSKTGGFELDISHVTPLTDNYSRNVVDAALFMGRSFRAGWGPNGVLFHTGKPICSSSSQMVLSSVINKEKIAIDKVVWDRKGKVQKELIDSAFEAPLSLHKELNHVEEEVRFGSFSLKLQNVVTDRVVLSDICRSYIGIIEKQLEVAGLSTSAKLFLMHQVMVWELIKVLFSERQSTERLMYAASDNEEDVMQDVKEDSAKIDTEALPLIRRAEFSCWLQESVSHRVQEDVSDLNGSSYLEHLFFLLTGRELDSAVELAISKGDVRLACLLSQAGGSTVNRNDILQQLHLWRRNGLDFNFIEKERIKLYELLAGNIHDALQDFTIDWKRFLGLLMWHHLPPDSSLPIIFRSYQLLLNQAKAPWPVPIYIDEGPADGFVSDNKHSDILYYLMLLHSKEEEEFGFLQTMFSAFSSTDDPLDYHMIWHHRGILEAVGAFTSDDLHTLDMGFVAQLLSQGLCHWAIYVVLHIPFREDHPYLHVTVIREILFQYCETWSSMESQRQFIKDLGIPSEWMHEALAVYYNYHGDFVKALDQFIECANWQRAHSIFMTSVAHSLFLSANHSEIWRIATSMDDRKSEIENWDLGAGIYMSFYLLKSSLQEDADTMVELEPLDSTNESCRNFVGRLNESLAVWGDRLPVEARVAYSKMAEEICDLLLSDLSKNPSRETQLTCFETAFDAPLPEDVRSTHLQDAVSLFSLYLSETGQISA
binds | NUP160 (protein, UniProt Q9C811 1-1495) MEENRRNPSAGMEVPVAGGGNVVKWIEISVPSPSVSSSSIGANSSEDNECVQLPLSEDYASSSVIGEPSISFVWRINKTSPNALELLQLSAKSGFPITGLRFVFAQTLSPFAFVYADEGGDSGRLVYFLYSLTPSGVVYVLKLSNTLAYKSGSVFPLDHLIHLDVRPYLNESRVTSVAASPGFIFLGRSDGCVSCFQPIVYFQKSSGFHQELRDDTGFGRLGTVVAAVQDLFISEVHGRNYLCVLHADGALRVWDILTYSRVLCQSIAAKNLEGVMCVRLWLGKADYDSGIIPLAVLYRKSMNDSMDVITVYGLHFSSAEGIALSLDSGLQNIPLEEGELRDVRFTSDKIWTLKANELTSYMLCQKSSTMEAQSYTLQEDYISEQLFLSSRSSSHDLLLTTHSLFSSAKDQIMGFISSIFLRRLLCPGIFHNVALRLTLLDHNKNWTDSEFQSLSLDELTSEILLLVEHEVTAETSISVFHWWKNFCTSYLHHWCSNNEPRTLLVQSDVIGLVRNNSVSLFFRLENAEHSLGGSSSEHSNLTSLDLGVSHSDHEILAEVLRCTSKISKQWGGAPYAMYYESITGRPIISSDEIVPRLVNILESGYSTTIGQRTWSDLGADRAWEKELEAHKNLRTFSIDMLLSLSALCQRAGSWEKVFTIMEHYLQYLVPKKSMQKNDGEALSDICSSILVQATSQFVKVMFESAFDIFLLISYLLNIAGQVNMSQQDICKLRLELLPMIQDIVSEWLIILFFVTTPAESTSMEDFSLKLSSLQIDSSIDKRSWNAMLGKCGFSLAFILLFSDRSCIVDGRFNLRYLPSSQIITSLVQNFISWIRYSKTGDDSSSLLRRSTELSLRLIRNGQSDAVERILVVVEASLRGEKTFGCSQDTSGDWCLLQHLRGCCLLDQVQRGASGILRERKIIDAIRCFFRASSGEGSWKALHSLSKEAGFSPATTGPSILDGSTSSAAWKLHYYEWAMQIFERYNISEGACQFAYAALEQVDDAYNFIEMTEEFDPTKAATYTRGRLWANVFKFTLDLNLLNDAYCAIISNPDEEIKRICLRRFIIVLFECGKTKILSDGHLPFIGLTEKITQELFWKAGRSDIMMKPNPYKLLYAYEMRRHNWRMAASYMYQFSARLRSEGACKDYKHMSLVLQERLNGLSAAMNALALVHPGYAWIDPVPEETTRYPVKKARRAEEEQLRSNDQPKGEKSCIDIEKLQNEFVFTTAEYMLSLKNFGWTYSGLEKPPSDLVDLLVQANLYDMAFTVVLKFWRGSALKRELEKIFENMAIKCCPAKGTLWSSPNLMLTSNDEEVTHSPDRSPADQGSKLAGDWEILEVYLKRYIDIHARLPVSVASTLLQADSCIELPLWLIQMFKDGQKEKALGMAGQEASPASLFQLYVDYGRLTEATNLLLEYMESFASSKPAEVLKRKKVSGVWFPYTTVERLWWELEKTMNSGRMVEQCHKLKEQLHHALLNHLKLLKVDSNDAVSSATG
